Experimental data reported in PMC8517470.

The chains behind the UniProt entries cited, without tags or fusion partners. Where a name states a change or a piece, a line headed by the entry shows the natural chain unless it says otherwise.
UniProt G5IXG8: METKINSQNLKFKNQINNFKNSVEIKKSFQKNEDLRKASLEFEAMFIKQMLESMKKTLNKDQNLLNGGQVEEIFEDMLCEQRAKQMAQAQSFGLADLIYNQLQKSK

Assays:
[1] = biological target: T1, MBP tagged FlgG (BB0774) (Borrelia burgdorferi) (UniProt O51715); assay: far-Western, overlay or dot blot; 1 μg purified MBP-tagged proteins run on SDS-PAGE and transferred to PVDF; blocked in 5% BSA, 10 mM Tris, 150 mM NaCl, 0.3% Tween 20, pH 7.4; incubated overnight with or without purified FLAG-FlgJ at 2 μg/ml in blocking solution; detected with anti-FLAG M2 antibody and ECL 2; both purified
T1 sequence: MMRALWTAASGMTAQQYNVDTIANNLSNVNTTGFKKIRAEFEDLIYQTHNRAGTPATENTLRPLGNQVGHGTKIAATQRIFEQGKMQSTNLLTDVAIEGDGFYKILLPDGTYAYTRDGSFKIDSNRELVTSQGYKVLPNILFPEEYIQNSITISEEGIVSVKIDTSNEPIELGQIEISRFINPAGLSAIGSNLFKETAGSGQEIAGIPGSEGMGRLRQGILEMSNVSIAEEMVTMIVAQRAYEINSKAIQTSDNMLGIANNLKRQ

[2] = biological target: T2, MBP tagged FlgD (BB0284) (Borrelia burgdorferi) (UniProt Q44920); assay: as above
T2 sequence: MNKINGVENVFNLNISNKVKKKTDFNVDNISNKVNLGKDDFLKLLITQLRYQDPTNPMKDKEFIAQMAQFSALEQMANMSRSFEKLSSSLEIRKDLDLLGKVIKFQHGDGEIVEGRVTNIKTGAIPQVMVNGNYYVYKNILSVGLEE

**Q.** “1xFLAG tagged FlgJ (BB0771a, also named BB0858) (from UniProt G5IXG8)” was tested. Which binding [1] did it give?
**A.** The binding was “no binding (tested: 2 μg/ml)”.

**Q.** What about the binding [2] of the same substance?
**A.** The binding was “binds”.

Results are given in words; binding and its absence hold for the method and conditions named. For some assays here: Binding can be weak; no strength is given. Tags and fused reporters may be left off the sequences shown.
